These are yes or no findings as the source states them, for the method shown. Binding seen in cells or lysates may run through a third protein. A yes stands for co-enrichment or nearness to the bait. Other partners may have been found. For some of these results: Sequences can lack the tags named with a protein. Blank lines part the entries; values can stand above or below the binder they belong to.
How the values were obtained:
ZZ–3 × Flag-STX17 = ZZ–3 × Flag-STX17 (UniProt P56962); experiment: affinity purification with mass spectrometry; TAP-MS: ZZ-3xFlag-STX17 from stable 293T TetR cells; IgG beads, TEV cleavage, anti-FLAG beads, FLAG peptide elution; bands cut from a silver-stained gel
[1] = target: T1, ZZ–3 × Flag-STX17, P56962; experiment: as above; settings: remark: other sources report otherwise
T1 chain: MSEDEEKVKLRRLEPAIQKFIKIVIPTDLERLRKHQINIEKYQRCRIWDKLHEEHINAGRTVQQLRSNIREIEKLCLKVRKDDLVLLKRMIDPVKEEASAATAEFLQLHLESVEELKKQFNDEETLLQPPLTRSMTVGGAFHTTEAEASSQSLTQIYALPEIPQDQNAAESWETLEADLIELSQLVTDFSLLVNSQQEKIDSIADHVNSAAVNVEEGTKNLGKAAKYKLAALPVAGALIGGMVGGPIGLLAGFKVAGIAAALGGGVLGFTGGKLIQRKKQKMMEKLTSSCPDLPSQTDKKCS

B1: YKT6 found with STX17 by TAP-MS (protein, UniProt O15498 1-198)
chain: MKLYSLSVLYKGEAKVVLLKAAYDVSSFSFFQRSSVQEFMTFTSQLIVERSSKGTRASVKEQDYLCHVYVRNDSLAGVVIADNEYPSRVAFTLLEKVLDEFSKQVDRIDWPVGSPATIHYPALDGHLSRYQNPREADPMTKVQAELDETKIILHNTMESLLERGEKLDDLVSKSEVLGTQSKAFYKTARKQNSCCAIM
binding (ZZ–3 × Flag-STX17): binds

B4: GST-Rab39A (natural protein, human, UniProt Q14964 1-217, looked up)
chain: METIWIYQFRLIVIGDSTVGKSCLLHRFTQGRFPGLRSPACDPTVGVDFFSRLLEIEPGKRIKLQLWDTAGQERFRSITRSYYRNSVGGFLVFDITNRRSFEHVKDWLEEAKMYVQPFRIVFLLVGHKCDLASQRQVTREEAEKLSADCGMKYIETSAKDATNVEESFTILTRDIYELIKKGEICIQDGWEGVKSGFVPNTVHSSEEAVKPRKECFC
notes: Rab39A, human, cloned from human cDNA; unprenylated; also called GST-R39A; purified Rab39A; source: E. coli BL21 (DE3), purified (Glutathione Sepharose); not shown: GST, N-terminal, kept
binding (ZZ–3 × Flag-STX17): binds

The remaining lines, values ahead:

binding (ZZ–3 × Flag-STX17): binds
B2: VPS16 found with STX17 by TAP-MS (protein, UniProt Q9H269 1-839)
chain: MDCYTANWNPLGDSAFYRKYELYSMDWDLKEELRDCLVAAAPYGGPIALLRNPWRKEKAASVRPVLDIYSASGMPLASLLWKSGPVVSLGWSAEEELLCVQEDGAVLVYGLHGDFRRHFSMGNEVLQNRVLDARIFHTEFGSGVAILTGAHRFTLSANVGDLKLRRMPEVPGLQSAPSCWTVLCQDRVAHILLAVGPDLYLLDHAACSAVTPPGLAPGVSSFLQMAVSFTYRHLALFTDTGYIWMGTASLKEKLCEFNCNIRAPPKQMVWCSRPRSKERAVVVAWERRLMVVGDAPESIQFVLDEDSYLVPELDGVRIFSRSTHEFLHEVPAASEEIFKIASMAPGALLLEAQKEYEKESQKADEYLREIQELGQLTQAVQQCIEAAGHEHQPDMQKSLLRAASFGKCFLDRFPPDSFVHMCQDLRVLNAVRDYHIGIPLTYSQYKQLTIQVLLDRLVLRRLYPLAIQICEYLRLPEVQGVSRILAHWACYKVQQKDVSDEDVARAINQKLGDTPGVSYSDIAARAYGCGRTELAIKLLEYEPRSGEQVPLLLKMKRSKLALSKAIESGDTDLVFTVLLHLKNELNRGDFFMTLRNQPMALSLYRQFCKHQELETLKDLYNQDDNHQELGSFHIRASYAAEERIEGRVAALQTAADAFYKAKNEFAAKATEDQMRLLRLQRRLEDELGGQFLDLSLHDTVTTLILGGHNKRAEQLARDFRIPDKRLWWLKLTALADLEDWEELEKFSKSKKSPIGYLPFVEICMKQHNKYEAKKYASRVGPEQKVKALLLVGDVAQAADVAIEHRNEAELSLVLSHCTGATDGATADKIQRARAQAQKK

binding [1]: binds
B3: VAMP8 found with STX17 by TAP-MS, Q9BV40 1-100 (protein)
chain: MEEASEGGGNDRVRNLQSEVEGVKNIMTQNVERILARGENLEHLRNKTEDLEATSEHFKTTSQKVARKFWWKNVKMIVLICVIVFIIILFIVLFATGAFS

From paper PMC10567733, “C9orf72-catalyzed GTP loading of Rab39A enables HOPS-mediated membrane tethering and fusion in mammalian autophagy” (Nature Communications, 2023)
